Test results taken from the supplement of paper PMC3334620.
The full ranking holds about 33,000 sequences; the median of “E-score (-0.5 to 0.5)” is about -0.0034, and the highest 2% start at about 0.25. The list shows a part of the results.

biological target: T1, Yap3 (UniProt P38749); test: PBM E-score (8-mer binding enrichment) (E-score (-0.5 to 0.5)); higher = stronger / more preferred TF binding; settings: protein concentration: 100 nM; construct: GST-full length
T1 sequence: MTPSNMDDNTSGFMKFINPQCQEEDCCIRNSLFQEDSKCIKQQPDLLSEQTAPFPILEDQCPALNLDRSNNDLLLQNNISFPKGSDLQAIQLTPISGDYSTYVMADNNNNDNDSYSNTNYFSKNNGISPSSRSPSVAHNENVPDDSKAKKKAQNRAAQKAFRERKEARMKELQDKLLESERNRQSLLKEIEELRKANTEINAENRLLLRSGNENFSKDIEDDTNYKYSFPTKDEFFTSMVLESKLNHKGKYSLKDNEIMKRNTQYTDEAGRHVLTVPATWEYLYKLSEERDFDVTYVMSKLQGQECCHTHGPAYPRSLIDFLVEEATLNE
Method in brief: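 Full-length yeast transcription factors or their DNA-binding domains, GST-tagged and expressed with PURExpress, were applied at about 100-200 nM to universal all-10-mer Agilent arrays. These arrays had been made double-stranded by primer extension on fresh or once-stripped slides. Detection used fluorescent anti-GST, normalisation used masliner, and E-scores for ungapped eight-base words pooled with reverse complements came from the Universal PBM Analysis Suite.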

Sequence | PBM E-score
CAGAGAGA | -0.172
CAAACCTG | 0.00604
GGAGAACA | 0.0539
CTAGCAAG | -0.0297
AAATCGCA | 0.123
AGCTAAGG | -0.191
ACCACCAC | -0.00648
AGAAATTC | 0.0349
AATTATTC | 0.256
CGGGGTAG | -0.0709
CAGTGCCG | -0.0957
GCAGATTA | 0.079
CACAACGA | 0.0195
CAAGGTGG | -0.118
CGGTTTCA | 0.0528
CCTTGTGA | -0.0241
CGCTGCCC | -0.264
CGGACCCC | -0.296
ACATCAGC | 0.0153
CTTGGGTA | 0.0519
ATCGGCGG | 0.0794
GACTAGAA | 0.192
GTATCAGA | -0.0367
GGACTGCA | -0.11
CAGTTGTC | -0.00619

Sequence | PBM E-score
TATAGGAA | 0.118
GACTCACC | -0.153
GCCACTCA | 0.0112
CTTCGAAC | 0.051
AATCGAAC | 0.107
AGCCTGCG | -0.221
GTCCCCAC | -0.322
GAGTGGTA | -0.00418
ATGTCAAT | 0.01
ATCCCATC | 0.0509
ATTTGGGA | 0.0914
ACGTGCCT | -0.191
ATCTTCGG | 0.114
GTTACAAC | 0.154
AAACTAAT | 0.272
CCCTAGAG | -0.143
GCCTATCC | -0.0822
GATTCGGC | -0.0169
ATCAAAGA | -0.0195
GTAGCTCA | -0.0882
TAACGACA | 0.0893
ATCGACAA | 0.126
ATTGCAAT | 0.283
AGGATGGA | -0.0875
AGTACCCC | -0.214

Sequence | PBM E-score
ATATTAGG | 0.209
ACGTTCAA | -0.00344
GGATAACA | 0.116
AGCATGTC | -0.0745
CCGGGAGC | -0.337
CGACAAGC | -0.206
CAACATCC | 0.024
CGCTGTGC | -0.111
ACATCAAT | 0.109
CAAACCAC | -0.042
GAAGTTAA | -0.0178
CCAAAGTA | 0.00764
AGGCTGAG | -0.0282
ACAACTGC | 0.0481
AAATACAT | 0.154
ATGATCTG | 0.0526
AGGGACCT | -0.11
GAGCTAAA | -0.189
TCCTGCCA | -0.136
AAATTGAT | 0.165
ATTTGTGA | 0.0681
CCTGATCG | -0.11
ACGGGTCA | -0.293
ATGGAAAA | 0.213
ACCTCCAA | -0.153

Sequence | PBM E-score
AATAACAC | 0.288
GACCAAGC | -0.00162
CCACCAAG | -0.128
AAACCCAG | 0.0487
ACATCAAC | 0.196
GAAAAGGA | 0.0543
ATAGCCAG | -0.00681
GGACAAAC | -0.0146
ATCAATGC | 0.0129
AACATCCA | 0.0691
TATGACAA | 0.123
CAATCAGG | 0.0129
GCCGGCCC | -0.24
GACTGTCC | -0.203
CAAGCTTA | 0.0342
GGGAAAAC | 0.0844
GGGACAAC | -0.0271
CGTTAATA | 0.197
ATTAAGTA | 0.237
CGGTTAGC | -0.185
ATTGCAAA | 0.0883
ACCATTCG | -0.0762
CGTAAGTC | 0.153
GAGTATAC | 0.0677
GTGCCCAA | -0.0496

Sequence | PBM E-score
ACGGTCTG | -0.171
CAATACGA | 0.138
AATCTGAG | -0.0276
CTTTAAAA | 0.208
GACTAAGC | 0.0559
GCCTTGCC | -0.125
CAGCTACA | -0.0169
ATCCTACG | 0.0452
CGTGCCGA | -0.0115
AGGGCGTA | -0.0844
GCACCGGC | -0.209
TACAAGTA | 0.177
AAACATAA | 0.202
CCGGTCGA | -0.307
TAAACATA | 0.19
CCCACTTC | 0.00309
ATATCCAG | 0.0361
ATCTACAT | 0.151
GGGTACGA | -0.00652
ATAATCCA | 0.212
ATAGGGAG | -0.119
ACTAGTCT | -0.143
AATGGAGA | 0.0536
AGGCAAAG | 0.0426
ATTTGTTG | 0.147

Sequence | PBM E-score
GACCCTGC | -0.234
AGGGATAA | 0.069
GCCGCCGA | 0.187
ATTCACGA | 0.149
CGGTAGGA | -0.174
ACGACGAG | -0.0147
AAGCTATT | -0.0651
CTGTTATA | 0.0877
AAACGGAG | 0.0915
CAACTTAG | 0.228
GATTGTAA | 0.125
ACAAGTTG | 0.0961
GACGGTCC | -0.184
GATGTTCA | -0.179
CCTGCGTC | -0.24
CCGGAGCG | -0.252
AACAAACA | 0.214
AAATTTAG | 0.156
GCCAACGA | -0.0194
CAACGGGC | 0.0706
ATTAGAAC | 0.253
ACATGAGA | 0.0391
AAACCCCT | -0.258
AGCACGCA | -0.219
TCTGTTAA | 0.145

Single entries from the entries so far.
Value for AAGCTATT under PBM E-score: -0.0651
Value for CAACTTAG under PBM E-score: 0.228
Value for ATTCACGA under PBM E-score: 0.149
Value for AAATTTAG under PBM E-score: 0.156
Value for CAACGGGC under PBM E-score: 0.0706
Value for AGCACGCA under PBM E-score: -0.219

Additional entries follow:

Sequence | PBM E-score
ATGGGCGC | -0.252
GGTAAGCA | 0.113
ACGGGTTG | -0.207
GCACACCC | -0.192
CTACGCCA | -0.251
CCGAAGTC | -0.0214
TGCATCCA | 0.127
TCAGGGCA | -0.136
ACTACGCT | 0.00341
CGGAAGAA | 0.102
GCCCTTGA | -0.123
CTACTGCC | -0.0886
CAACCTCA | -0.0535
ACGCTAGT | -0.0174
CGGTGGCC | -0.208
CGGCAGGA | -0.337
GAGGCTAA | 0.0305
AAAAACTG | 0.0375
CCCGCAAC | -0.0592
TAGATGAA | 0.082
CAAATTGA | 0.0304
AAGGTGAG | 0.065
